Laboratory results from PubChem BioAssay AID248 (DTP/NCI, 2004).
The list does not hold the whole screen: it is rich in T/C values a quarter to a half above the control, in often repeated tests (any T/C) and in doses without a T/C. Further doses and runs are listed elsewhere. T/C: endpoint of the treated group in % of that of the vehicle group. Some entries give survivors of the animals treated and no T/C: the source files T/C as zero there, which appears to mark a toxic dose or a test without result, not a measured value. Some survivor counts are full or nearly so, which does not show that the dose was tolerated: survival well below the control is almost never listed, so the zero probably covers shortened survival too. Survivors were counted at the toxicity check, usually on the fifth day, unless a day is given; later deaths do not show. Schedules are NCI's codes, read here as Q, the interval in days (D) or hours (H), X, the number of doses. Some entries hold several experiments; the values are given in rising order. Where survival is the endpoint, this PubChem deposit counts one and a half times the control or more as active, and values a quarter to a half above the control carry no call in these data; other NCI protocols may use other cut-offs. Signs of the kind (2×) say how often a value occurs here. Some T/C values are followed by the survivors on the day toxicity was checked, most often the fifth; where none is given, no animal had died by that day.

Tested on: L1210 leukemia ip in BDF1 mice, survival T/C
Test: NCI In Vivo Anticancer Drug Screen. Data for tumor model L1210 Leukemia (intraperitoneal) in B6D2F1 (BDF1) mice
Details: T/C endpoint: median survival time, higher T/C = longer survival

## COc1cccc2c1C(=O)c1c(O)c3c(c(O)c1C2=O)C[C@@](O)(C(=O)CO)C[C@@H]3OC1CC(N)C(O)C(C)O1 (some centres undefined)
dose: 1.08 mg/kg/injection, schedule: Q03HX008 (sc), vehicle: water
  T/C: 125 % of control
dose: 1.08 mg/kg/injection, schedule: Q03HX016 (ip), vehicle: water, evaluated on day 5
  T/C: 157 % of control
dose: 1.08 mg/kg/injection, schedule: Q03HX016 (ip), vehicle: water, evaluated on day 46
  T/C: 155 % of control
dose: 1.08 mg/kg/injection, schedule: Q03HX016 (ip), vehicle: water, evaluated on day 60
  T/C: 109 and 122 % of control
dose: 1.08 mg/kg/injection, schedule: Q03HX024 (ip), vehicle: water, evaluated on day 7
  T/C: 114 and 132 % of control
dose: 1.08 mg/kg/injection, schedule: Q03HX024 (ip), vehicle: water, evaluated on day 32
  T/C: 114 % of control
dose: 1.08 mg/kg/injection, schedule: Q03HX024 (ip), vehicle: water, evaluated on day 60
  T/C: 100 and 113 % of control [7 of 8 alive]
dose: 1.08 mg/kg/injection, schedule: Q03HX024 (ip), vehicle: water, evaluated on day 63
  T/C: 129 % of control
dose: 1.08 mg/kg/injection, schedule: Q04DX003 (ip), vehicle: water, evaluated on day 5
  T/C: 58, 118, 127, 134 % of control
dose: 1.08 mg/kg/injection, schedule: Q04DX003 (ip), vehicle: water, evaluated on day 7
  T/C: 104 % of control (2×)
dose: 1.08 mg/kg/injection, schedule: Q04DX003 (ip), vehicle: water, evaluated on day 31
  T/C: 104 % of control
dose: 1.08 mg/kg/injection, schedule: Q04DX003 (ip), vehicle: water, evaluated on day 40
  T/C: 104 % of control
dose: 1.08 mg/kg/injection, schedule: Q04DX003 (ip), vehicle: water, evaluated on day 60
  T/C: 115, 127, 140 % of control
dose: 1.08 mg/kg/injection, schedule: Q04DX003 (ip), vehicle: water
  survivor count: 8 of 8
dose: 1.1 mg/kg/injection, schedule: Q04DX003 (ip), vehicle: water, evaluated on day 60
  T/C: 126 % of control
dose: 1.1 mg/kg/injection, schedule: Q04DX003 (ip), vehicle: water, evaluated on day 90
  T/C: 138 % of control
dose: 1.17 mg/kg/injection, schedule: Q03HX008 (ip), vehicle: water
  T/C: 133 % of control
dose: 1.25 mg/kg/injection, schedule: Q04DX003 (ip), vehicle: water, evaluated on day 5
  T/C: 131 % of control
dose: 1.25 mg/kg/injection, schedule: Q04DX003 (ip), vehicle: water, evaluated on day 46
  T/C: 133 % of control
dose: 1.5 mg/kg/injection, schedule: Q01DX005 (ip), vehicle: other, evaluated on day 5
  T/C: 126 % of control
dose: 1.5 mg/kg/injection, schedule: Q01DX005 (ip), vehicle: other, evaluated on day 31
  T/C: 126 % of control
dose: 1.5 mg/kg/injection, schedule: Q03HX008 (ip), vehicle: water, evaluated on day 5
  T/C: 79, 93, 139, 144, 148 % of control
dose: 1.5 mg/kg/injection, schedule: Q03HX008 (ip), vehicle: water, evaluated on day 7
  T/C: 134 % of control
dose: 1.5 mg/kg/injection, schedule: Q03HX008 (ip), vehicle: water, evaluated on day 20
  T/C: 148 % of control
dose: 1.5 mg/kg/injection, schedule: Q03HX008 (ip), vehicle: water, evaluated on day 29
  T/C: 139 % of control
dose: 1.5 mg/kg/injection, schedule: Q03HX008 (ip), vehicle: water, evaluated on day 30
  T/C: 93 [6 of 8 alive], 134, 144 % of control
dose: 1.5 mg/kg/injection, schedule: Q03HX008 (ip), vehicle: water
  survivor count: 7 of 8
dose: 1.8 mg/kg/injection, schedule: Q01DX005 (ip), vehicle: water, evaluated on day 5
  T/C: 120 % of control
dose: 1.8 mg/kg/injection, schedule: Q01DX005 (ip), vehicle: water, evaluated on day 35
  T/C: 135 % of control
dose: 1.8 mg/kg/injection, schedule: Q01DX005 (ip), vehicle: water, evaluated on day 60
  T/C: 105 and 120 % of control
dose: 1.8 mg/kg/injection, schedule: Q01DX005 (ip), vehicle: water, evaluated on day 90
  T/C: 127 % of control
dose: 1.8 mg/kg/injection, schedule: Q03HX008 (ip), vehicle: water, evaluated on day 5
  T/C: 51, 78, 154, 158 % of control
dose: 1.8 mg/kg/injection, schedule: Q03HX008 (ip), vehicle: water, evaluated on day 7
  T/C: 111, 116, 126, 151 % of control
dose: 1.8 mg/kg/injection, schedule: Q03HX008 (ip), vehicle: water, evaluated on day 20
  T/C: 116 % of control
dose: 1.8 mg/kg/injection, schedule: Q03HX008 (ip), vehicle: water, evaluated on day 30
  T/C: 170 % of control
dose: 1.8 mg/kg/injection, schedule: Q03HX008 (ip), vehicle: water, evaluated on day 32
  T/C: 126 % of control
dose: 1.8 mg/kg/injection, schedule: Q03HX008 (ip), vehicle: water, evaluated on day 33
  T/C: 140 % of control
dose: 1.8 mg/kg/injection, schedule: Q03HX008 (ip), vehicle: water, evaluated on day 35
  T/C: 220 % of control
dose: 1.8 mg/kg/injection, schedule: Q03HX008 (ip), vehicle: water, evaluated on day 46
  T/C: 155 % of control
dose: 1.8 mg/kg/injection, schedule: Q03HX008 (ip), vehicle: water, evaluated on day 60
  T/C: 109, 111 [7 of 8 alive], 113 % of control
dose: 1.8 mg/kg/injection, schedule: Q03HX008 (ip), vehicle: water, evaluated on day 63
  T/C: 141 % of control
dose: 1.8 mg/kg/injection, schedule: Q03HX008 (ip), vehicle: water
  survivor count: 4 of 8 and 8 of 8
dose: 1.8 mg/kg/injection, schedule: Q03HX008 (sc), vehicle: water
  T/C: 135 % of control
dose: 1.8 mg/kg/injection, schedule: Q03HX016 (ip), vehicle: water, evaluated on day 5
  T/C: 135 % of control
dose: 1.8 mg/kg/injection, schedule: Q03HX016 (ip), vehicle: water, evaluated on day 46
  T/C: 133 % of control
dose: 1.8 mg/kg/injection, schedule: Q03HX016 (ip), vehicle: water, evaluated on day 60
  T/C: 100 and 118 % of control [6 of 8 alive]
dose: 1.8 mg/kg/injection, schedule: Q03HX024 (ip), vehicle: water, evaluated on day 7
  T/C: 124 and 127 % of control
dose: 1.8 mg/kg/injection, schedule: Q03HX024 (ip), vehicle: water, evaluated on day 32
  T/C: 124 % of control
dose: 1.8 mg/kg/injection, schedule: Q03HX024 (ip), vehicle: water, evaluated on day 60
  T/C: 109 % of control
dose: 1.8 mg/kg/injection, schedule: Q03HX024 (ip), vehicle: water, evaluated on day 63
  T/C: 129 % of control
dose: 1.8 mg/kg/injection, schedule: Q03HX024 (ip), vehicle: water
  survivor count: 8 of 8
dose: 1.8 mg/kg/injection, schedule: Q04DX003 (ip), vehicle: water, evaluated on day 5
  T/C: 44, 99, 117, 126 % of control
dose: 1.8 mg/kg/injection, schedule: Q04DX003 (ip), vehicle: water, evaluated on day 7
  T/C: 99 and 104 % of control (2×)
dose: 1.8 mg/kg/injection, schedule: Q04DX003 (ip), vehicle: water, evaluated on day 31
  T/C: 104 % of control
